# Measurements reported in the supplement of paper PMC8728848.
# The list shows a part of the results.
# B1: Intelectin-1a (Mus musculus) (protein)
# chain: AEWSHPQFEKAEENLDTNRWGNSFFSSLPRSCKEIKQEHTKAQDGLYFLRTKNGVIYQTFCDMTTAGGGWTLVASVHENNMRGKCTVGDRWSSQQGNRADYPEGDGNWANYNTFGSAEAATSDDYKNPGYFDIQAENLGIWHVPNKSPLHNWRKSSLLRYRTFTGFLQHLGHNLFGLYKKYPVKYGEGKCWTDNGPALPVVYDFGDARKTASYYSPSGQREFTAGYVQFRVFNNERAASALCAGVRVTGCNTEHHCIGGGGFFPEGNPVQCGDFASFDWDGYGTHNGYSSSRKITEAAVLLFYR
# Experiments:
# Test in all cases: glycan array binding signal (z-score within array); higher = stronger binding
# Conditions in all cases: glycan notation: IUPAC condensed, linker removed
# [1] = biological target: Gal(a1-3)Gal(b1-4)GlcNAc(b1-3)GalNAc
# Summary of the method: (§1)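 Glycan array binding is given as a within-array Z-score, which can be read as non-binding when negative. The arrays, 3228 of them, came from the Consortium for Functional Glycomics database and were retained only where the protein sequence was available. Z-scores were averaged across arrays of the same protein sequence at different concentrations or buffers and across linkers.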
# [2] = biological target: Gal(a1-3)Gal(b1-4)GlcNAc(b1-6)GalNAc
# Summary of the method: as §1
# [3] = biological target: Gal(a1-3)Gal(b1-4)[Fuc(a1-3)]GlcNAc
# Summary of the method: as §1
# [4] = biological target: Gal(a1-3)Gal(b1-4)[Fuc(a1-3)]GlcNAc(b1-2)Man(a1-3)[Gal(a1-3)Gal(b1-4)[Fuc(a1-3)]GlcNAc(b1-2)Man(a1-6)]Man(b1-4)GlcNAc(b1-4)GlcNAc
# Summary of the method: as §1
# Gal(a1-3)GalNAc = biological target: Gal(a1-3)GalNAc
# Summary of the method: as §1
# [5] = biological target: Gal(a1-3)[Gal(a1-4)]Gal(b1-4)GlcNAc
# Summary of the method: as §1
# [6] = biological target: Gal(a1-4)Gal(b1-3)GlcNAc(b1-2)Man(a1-3)[Gal(a1-4)Gal(b1-3)GlcNAc(b1-2)Man(a1-6)]Man(b1-4)GlcNAc(b1-4)GlcNAc
# Summary of the method: as §1
# Gal(a1-4)Gal(b1-4)Glc = biological target: Gal(a1-4)Gal(b1-4)Glc
# Summary of the method: as §1
# Gal(a1-4)Gal(b1-4)GlcNAc = biological target: Gal(a1-4)Gal(b1-4)GlcNAc
# Summary of the method: as §1
# [7] = biological target: Gal(a1-4)Gal(b1-4)GlcNAc(b1-2)Man(a1-3)[Gal(a1-4)Gal(b1-4)GlcNAc(b1-2)Man(a1-6)]Man(b1-4)GlcNAc(b1-4)GlcNAc
# Summary of the method: as §1
# [8] = biological target: Gal(a1-4)Gal(b1-4)GlcNAc(b1-3)Gal(b1-4)Glc
# Summary of the method: as §1
# Gal(a1-4)GlcNAc = biological target: Gal(a1-4)GlcNAc
# Summary of the method: as §1
# Gal(a1-6)Glc = biological target: Gal(a1-6)Glc
# Summary of the method: as §1
# Gal(b1-2)Gal = biological target: Gal(b1-2)Gal
# Summary of the method: as §1
# Gal(b1-3)Gal = biological target: Gal(b1-3)Gal
# Summary of the method: as §1
# Gal(b1-3)Gal(b1-4)GlcNAc = biological target: Gal(b1-3)Gal(b1-4)GlcNAc
# Summary of the method: as §1
# [9] = biological target: Gal(b1-3)Gal(b1-4)GlcNAc(b1-2)Man(a1-3)[Gal(b1-3)Gal(b1-4)GlcNAc(b1-2)Man(a1-6)]Man(b1-4)GlcNAc(b1-4)GlcNAc
# Summary of the method: as §1
# Gal(b1-3)GalNAc = biological target: Gal(b1-3)GalNAc
# Summary of the method: as §1
# [10] = biological target: Gal(b1-3)GalNAc(a1-3)[Fuc(a1-2)]Gal(b1-4)Glc
# Summary of the method: as §1
# [11] = biological target: Gal(b1-3)GalNAc(a1-3)[Fuc(a1-2)]Gal(b1-4)GlcNAc
# Summary of the method: as §1
# [12] = biological target: Gal(b1-3)GalNAc(b1-3)Gal(a1-4)Gal(b1-4)Glc
# Summary of the method: as §1
# [13] = biological target: Gal(b1-3)GalNAc(b1-4)Gal(b1-4)Glc
# Summary of the method: as §1
# [14] = biological target: Gal(b1-3)GalNAc(b1-4)[Neu5Ac(a2-3)]Gal(b1-4)Glc
# Summary of the method: as §1
# Gal(b1-3)GlcNAc = biological target: Gal(b1-3)GlcNAc
# Summary of the method: as §1
# [15] = biological target: Gal(b1-3)GlcNAc(a1-3)Gal(b1-4)GlcNAc
# Summary of the method: as §1
# [16] = biological target: Gal(b1-3)GlcNAc(a1-6)Gal(b1-4)GlcNAc
# Summary of the method: as §1
# [17] = biological target: Gal(b1-3)GlcNAc(b1-2)Man(a1-3)[Gal(b1-3)GlcNAc(b1-2)Man(a1-6)]Man(b1-4)GlcNAc(b1-4)GlcNAc
# Summary of the method: as §1
# [18] = biological target: Gal(b1-3)GlcNAc(b1-2)Man(a1-3)[Gal(b1-3)GlcNAc(b1-2)Man(a1-6)]Man(b1-4)GlcNAc(b1-4)[Fuc(a1-6)]GlcNAc
# Summary of the method: as §1
# [19] = biological target: Gal(b1-3)GlcNAc(b1-2)Man(a1-3)[GlcNAc(b1-4)][Gal(b1-3)GlcNAc(b1-2)Man(a1-6)]Man(b1-4)GlcNAc(b1-4)GlcNAc
# Summary of the method: as §1
# [20] = biological target: Gal(b1-3)GlcNAc(b1-2)[Gal(b1-3)GlcNAc(b1-6)]Man(a1-6)[Gal(b1-3)GlcNAc(b1-2)Man(a1-3)]Man(b1-4)GlcNAc(b1-4)GlcNAc
# Summary of the method: as §1
# [21] = biological target: Gal(b1-3)GlcNAc(b1-3)Gal(b1-3)GlcNAc
# Summary of the method: as §1
# [22] = biological target: Gal(b1-3)GlcNAc(b1-3)Gal(b1-4)Glc
# Summary of the method: as §1
# [23] = biological target: Gal(b1-3)GlcNAc(b1-3)Gal(b1-4)GlcNAc
# Summary of the method: as §1
# [24] = biological target: Gal(b1-3)GlcNAc(b1-3)Gal(b1-4)GlcNAc(b1-6)[Gal(b1-3)GlcNAc(b1-3)]Gal(b1-4)Glc
# Summary of the method: as §1
# [25] = biological target: Gal(b1-3)GlcNAc(b1-3)Gal(b1-4)[Fuc(a1-3)]GlcNAc(b1-6)[Gal(b1-3)GlcNAc(b1-3)]Gal(b1-4)Glc
# Summary of the method: as §1
# [26] = biological target: Gal(b1-3)GlcNAc(b1-3)GalNAc
# Summary of the method: as §1
# [27] = biological target: Gal(b1-3)GlcNAc(b1-6)Gal(b1-4)GlcNAc
# Summary of the method: as §1
# [28] = biological target: Gal(b1-3)GlcNAc(b1-6)GalNAc
# Summary of the method: as §1
binder,measurement,setting,value
B1,glycan array binding signal (z-score),[1],-1.7
same,glycan array binding signal (z-score),[2],-0.578
same,glycan array binding signal (z-score),[3],0.274
same,glycan array binding signal (z-score),[4],2.76
same,glycan array binding signal (z-score),Gal(a1-3)GalNAc,-0.697
same,glycan array binding signal (z-score),[5],0.625
same,glycan array binding signal (z-score),[6],-1.61
same,glycan array binding signal (z-score),Gal(a1-4)Gal(b1-4)Glc,0.347
same,glycan array binding signal (z-score),Gal(a1-4)Gal(b1-4)GlcNAc,-0.027
same,glycan array binding signal (z-score),[7],-0.995
same,glycan array binding signal (z-score),[8],0.434
same,glycan array binding signal (z-score),Gal(a1-4)GlcNAc,-0.186
same,glycan array binding signal (z-score),Gal(a1-6)Glc,2.06
same,glycan array binding signal (z-score),Gal(b1-2)Gal,0.735
same,glycan array binding signal (z-score),Gal(b1-3)Gal,0.171
same,glycan array binding signal (z-score),Gal(b1-3)Gal(b1-4)GlcNAc,0.187
same,glycan array binding signal (z-score),[9],1.66
same,glycan array binding signal (z-score),Gal(b1-3)GalNAc,-0.611
same,glycan array binding signal (z-score),[10],1.24
same,glycan array binding signal (z-score),[11],0.686
same,glycan array binding signal (z-score),[12],-0.779
same,glycan array binding signal (z-score),[13],-0.48
same,glycan array binding signal (z-score),[14],-0.738
same,glycan array binding signal (z-score),Gal(b1-3)GlcNAc,0.341
same,glycan array binding signal (z-score),[15],-0.63
same,glycan array binding signal (z-score),[16],-0.798
same,glycan array binding signal (z-score),[17],1.7
same,glycan array binding signal (z-score),[18],-1.01
same,glycan array binding signal (z-score),[19],-0.573
same,glycan array binding signal (z-score),[20],-0.178
same,glycan array binding signal (z-score),[21],-0.407
same,glycan array binding signal (z-score),[22],0.971
same,glycan array binding signal (z-score),[23],-1.33
same,glycan array binding signal (z-score),[24],2.74
same,glycan array binding signal (z-score),[25],0.979
same,glycan array binding signal (z-score),[26],-0.411
same,glycan array binding signal (z-score),[27],-0.207
same,glycan array binding signal (z-score),[28],0.883
